From PubChem BioAssay AID652136 (The Scripps Research Institute Molecular Screening Center, 2013) come the findings set out here.

One may read the inhibition as the percentage by which the read-out fell short of the control.

This is a selection; strong and weak results do not stand in their true shares. The source made the active and inactive calls.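 Rule for the calls: active = inhibition above the mean of all tested compounds plus 3 SD (cut at about 3% in these data); inactive = the rest.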

This experiment is described as follows: StAR reporter signal changes without DAX1, counter-screen for DAX1 inhibitor project, cell-based, luminescence, AF-2 mutant SF-1, transactivation (AID 652136).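 Note: 0% = DAX-1 transfected cells with DMSO and 100% = cells without DAX-1 with DMSO.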 The note with it: HEK293 StAR-luciferase, SF-1 AF2 mutant, at 6.8 µM, hits give high values. A general note: The purpose of a counterscreen is to sort out artefacts and off-target activity.
For the compound `O=C(C=Cc1ccccc1)Nc1ccccc1`, the inhibition is active: 9.21%.
